The list shows a part of the results. The main result of the screen is listed elsewhere. These columns were measured beside it and carry no call. The list favours compounds with an active or inconclusive main result. The note in brackets gives the kind of curve behind each potency; many fits are weak.
Test: qHTS Assay for Lipid Storage Modulators in Drosophila S3 Cells;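 on cell number change: cells counted by Cell Tracker Red CMTPX staining in the red channel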
Conditions: BODIPY lipid droplet fluorescence, 18-24 h; for cell number change: measured here: cell count max response, cells fed with added oleic acid
Outline: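 Drosophila S3 cells got compounds at several concentrations plus oleic acid (400 uM solution). Laser-scanning cytometry with 488 nm excitation read lipid droplets at 500-530 nm and cells at 575-640 nm. Percent activity was relative to 20 uM Triacsin C.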

[1] = measured here: lipid fluorescence (Fed channel) AC50, cells fed with added oleic acid
[2] = measured here: cell number channel AC50, cells fed with added oleic acid

| Structure (SMILES) | cell number change [%] | AC50 [1] | AC50 [2] |
| --- | --- | --- | --- |
| CC(=O)N/C(=C\c1ccccc1)C(=O)Nc1ccccc1C | 1.74 | 6.51 µM [falling, single point] |  |
| CCN1CCN(c2ccc(Cl)cc2NC(=O)c2ccco2)CC1 | -20.1 | 6.51 µM [falling, single point] | 0.0058 µM [falling, full curve, poor fit] |
| Cc1ccccc1N1C(=O)CC1(C#N)c1ccc(OCc2ccccc2)cc1 (stereo not drawn) | -41.5 | 0.461 µM [rising, partial curve, poor fit] | 29.1 µM [falling, single point] |
| O=[N+]([O-])c1ccc(S(=O)(=O)NCC(c2cccnc2)N2CCc3ccccc3C2)cc1 (stereo not drawn) | 58.9 |  | 29.1 µM [rising, single point] |
| OCCC1CN(Cc2cccn2-c2nccs2)CCN1Cc1ccccc1 (stereo not drawn) | 17.2 |  |  |
| N#CC/C(N)=N/Nc1nc2ccccc2nc1Cc1ccccc1 | -9.04 | 16.4 µM [falling, single point] |  |
| CC(=O)C1=C(O)C(=O)N(c2ccc(C)cc2)C1c1ccc([N+](=O)[O-])cc1 (stereo not drawn) | 37.3 | 1.16 µM [falling, full curve] | 0.651 µM [falling, partial curve] |
| COc1ccc(NC2=CC(=O)N(C)C2=O)cc1 | 36.6 | 29.1 µM [rising, single point] | 29.1 µM [rising, single point] |
| CN(C)S(=O)(=O)c1cccc(NC(=O)COC(=O)/C=C/c2cccs2)c1 |  | 6.51 µM [falling, single point] |  |
| O=C(Nc1cccc(Cl)c1)N1CCOCC1 | 15.9 | 18.4 µM [falling, partial curve, poor fit] |  |
| C=C(C)CSc1nc(N)c2c(C)c(C)sc2n1 |  | 0.058 µM [rising, full curve] | 1.03 µM [rising, partial curve] |
| Nc1nc(SCC(=O)N2CCOCC2)n[nH]1 | -13.1 | 18.4 µM [falling, single point] |  |
| O=C1NC(=O)C2C3c4ccccc4C(c4ccccc43)C12 (stereo not drawn) | 1.38 | 6.51 µM [falling, single point] |  |
| CCOC(=O)Nc1ccc(=O)n(Cc2c(Cl)cccc2Cl)c1 | 24.4 | 25.9 µM [rising, single point] |  |
| CCc1ccc(NC(=O)Cc2cn(C)c3ccccc23)cc1 | 0.913 |  |  |
| CN(C)C(CNC(=O)C1CCN(S(=O)(=O)c2cccc(Cl)c2Cl)CC1)c1ccccc1 (stereo not drawn) | 27 | 14.6 µM [rising, partial curve] |  |
| COc1cc(CNCc2ccc(OC)c3ccccc23)cc(OC)c1OC | -40.7 |  | 16.4 µM [falling, single point] |
| CCN(C(=O)CSc1nnc(Cc2ccccc2F)n1N)C1CCS(=O)(=O)C1 (stereo not drawn) |  | 6.51 µM [falling, partial curve] |  |
| Clc1nssc1=Nc1nncs1 | -84.6 | 20.6 µM [falling, single point] | 5.17 µM [falling, single point] |
| Cc1cc(N2C(=O)C3C4C=CC(C4)C3C2=O)ccc1NC(=O)c1cccs1 (stereo not drawn) | -4.94 | 4.11 µM [rising, single point] |  |

| Structure (SMILES) | cell number change [%] | AC50 [1] | AC50 [2] |
| --- | --- | --- | --- |
| COc1c(OC(C)=O)ccc(/C=C/c2ccc3ccccc3n2)c1[N+](=O)[O-] | -18.8 |  |  |
| CC(C)CCC1(CCNC(C)c2cccs2)CCOC(C)(C)C1 (stereo not drawn) | -16.3 | 0.146 µM [falling, full curve, poor fit] |  |
| COc1cc2cc(Oc3ccc4ccc(=O)oc4c3)c(=O)oc2cc1OC(=O)C=C(C)C | 10.5 | 1.64 µM [rising, partial curve, poor fit] |  |
| COc1cc(/C=N/NC(=O)c2cccnc2)ccc1OS(=O)(=O)c1ccc(F)cc1 |  | 0.731 µM [rising, full curve] | 0.461 µM [rising, full curve] |
| O=C(Nc1ccncc1)c1ccc2c(c1)C(=O)N(C1CCCCC1)C2=O | -51.7 | 0.13 µM [falling, full curve, poor fit] | 0.092 µM [falling, full curve, poor fit] |
| COc1cc(C2/C(=C(\O)c3ccc4c(c3)OCCO4)C(=O)C(=O)N2c2nnc(C)s2)cc(OC)c1OC (stereo not drawn) | 11.3 | 23.1 µM [rising, single point] |  |
| CC(C)(C)C(=O)/C=c1\s/c(=C\c2ccc(-c3ccc([N+](=O)[O-])cc3)o2)c(=O)n1CC(=O)NC(N)=O |  | 2.06 µM [falling, full curve, poor fit] |  |
| COc1ccc(NC(=O)Cn2nc(C)c3ccccc3c2=O)cc1 | 9.82 |  |  |
| Cc1ccc(C)c(OCC(=O)N2CCOCC2)c1 | 15.2 | 29.1 µM [rising, single point] |  |
| CCCCC(CC)C(=O)Nc1cc(C(=O)NCCC)ccc1N1CCC2(CC1)CC(c1cccc(Br)c1)=NO2 (stereo not drawn) | -8.2 | 29.1 µM [rising, single point] |  |
| CC(C)CNC(=O)c1ccccc1NC(=O)CCSc1ccccc1 | 4.87 | 4.61 µM [rising, partial curve] |  |
| COCCn1ccc2c(OCC(=O)NCCc3ccc(OC)c(OC)c3)cccc2c1=O | -1.6 | 6.51 µM [rising, single point] |  |
| CCO[C@@H]1OC(C(=O)N2CCN(Cc3ccccc3)CC2)=C[C@H](c2cn(C(C)=O)c3ccccc23)[C@H]1CCCO | -16.3 | 0.651 µM [falling, single point] |  |
| CC(=O)c1ccc(NC(=O)c2ccc3nc(C)sc3c2)cc1 | 2.93 |  |  |
| Cc1noc(C)c1S(=O)(=O)N1CCCCC1 |  | 1.3 µM [rising, full curve, poor fit] |  |
| O=c1c2cnn(-c3ccc(F)cc3)c2ncn1Cc1ccccn1 | 86.4 | 5.17 µM [rising, partial curve] | 7.31 µM [rising, partial curve] |
| CCc1nnc(NC(=O)c2cccc(S(=O)(=O)N3CCN(C(C)=O)CC3)c2)s1 | 13.3 | 0.366 µM [rising, partial curve, poor fit] |  |
| O=C(C1Cc2ccccc2CN1S(=O)(=O)c1ccc(F)cc1)N1CCCCC1 (stereo not drawn) | 7.61 | 14.6 µM [rising, single point] |  |
| Cc1ccc(NC(=O)C2CC(=O)N(Cc3ccccc3)C2)nc1 (stereo not drawn) | 14.1 |  |  |
| Cc1nc(C(=O)NCc2ccccc2)sc1C1(C)CC(c2cccc([N+](=O)[O-])c2)=NO1 (stereo not drawn) | 4.01 |  |  |

| Structure (SMILES) | cell number change [%] | AC50 [1] | AC50 [2] |
| --- | --- | --- | --- |
| COc1ccc(-c2nnc(SCC(=O)N(C)C3CCS(=O)(=O)C3)n2N)cc1OC (stereo not drawn) | -24.3 | 25.9 µM [falling, single point] |  |
| COc1ccc(N2CCN(c3nc4ccccc4n3CC(=O)c3ccccc3)CC2)cc1 | -0.559 | 2.31 µM [rising, single point] |  |
| O=C(Nc1ccc(F)c(Cl)c1)Nc1cnccn1 | -7.75 | 3.26 µM [falling, single point] |  |
| Nc1ccn([C@@H]2O[C@H](CO)[C@@H](O)[C@@H]2O)c(=O)n1 | 33.8 | 0.651 µM [rising, full curve, poor fit] | 0.82 µM [rising, full curve, poor fit] |
| Cc1ccc(-c2nc(C(=O)NCCCN3CCOCC3)cc3c2[nH]c2ccccc23)cc1 | -12.4 | 14.6 µM [falling, partial curve, poor fit] |  |
| O=S(=O)(c1ccc(=S)[nH]c1)N1CCCCCC1 | -7.16 | 29.1 µM [rising, single point] |  |
| COc1ccc(S(=O)(=O)N(CCc2ccccc2)CC(=O)N/N=C/c2ccc3c(c2)OCO3)cc1 |  |  | 0.411 µM [falling, single point] |
| COC(=O)c1c(C(=O)NCc2ccccc2)ncn1CC(O)COc1ccccc1 (stereo not drawn) | -0.97 |  |  |
| O=C1c2ccccc2S(=O)(=O)N1CC1CC(c2ccc(Cl)cc2)=NO1 (stereo not drawn) | 32.7 | 18.4 µM [rising, partial curve] | 14.6 µM [rising, single point] |
| COc1ccc(C(=O)NNC(=O)Cn2nnc(-c3ccc(OC)c(OC)c3)n2)cc1 | -55.4 | 0.184 µM [falling, full curve] | 0.231 µM [falling, full curve] |
| CCn1c(SCC(=O)C(C)(C)C)nnc1-c1ccccc1OC | 9.01 | 4.61 µM [falling, single point] |  |
| Cc1ccc(S(=O)(=O)NC(=O)NCCCCNC(=O)NS(=O)(=O)c2ccc(C)cc2)cc1 | 18.1 | 0.259 µM [rising, partial curve] |  |
| O=c1nc(Nc2ccccc2)oc2ccccc12 |  |  | 0.461 µM [rising, single point] |
| COc1c2ccoc2c(OC[C@@H](O)C(C)(C)O)c2oc(=O)ccc12 | 6.66 | 0.82 µM [rising, partial curve, poor fit] |  |
| CN(CC(=O)NCCCc1ccccc1)S(=O)(=O)c1ccc(Br)cc1 | -5.77 | 5.8 µM [falling, partial curve, poor fit] |  |
| CCOc1ccccc1NC(=O)NNS(=O)(=O)c1ccc([N+](=O)[O-])cc1 | -1.98 | 29.1 µM [rising, single point] |  |
| COc1ccccc1OCc1csc(NC(=O)c2ccco2)n1 | 7.45 | 6.51 µM [rising, single point] | 2.91 µM [rising, single point] |
| CN(C(=O)c1cccc(C#N)c1)c1nnc(-c2ccccn2)s1 | 28.2 | 0.00517 µM [rising, full curve, poor fit] |  |

Structural class: those above with a tert-butyl group.

| Structure (SMILES) | cell number change [%] | AC50 [1] | AC50 [2] |
| --- | --- | --- | --- |
| CC(C)(C)C(=O)/C=c1\s/c(=C\c2ccc(-c3ccc([N+](=O)[O-])cc3)o2)c(=O)n1CC(=O)NC(N)=O |  | 2.06 µM [falling, full curve, poor fit] |  |
| CCn1c(SCC(=O)C(C)(C)C)nnc1-c1ccccc1OC | 9.01 | 4.61 µM [falling, single point] |  |
